These are yes or no findings as the source states them, for the method shown. Binding seen in cells or lysates may run through a third protein. Some results given as binding are weak or reduced against the parent protein; the word gives no strength. Tags and fused reporters may be left off the sequences shown.

Amino acid sequences for entries named in this document (tags omitted).
UniProt P62258, whole entry: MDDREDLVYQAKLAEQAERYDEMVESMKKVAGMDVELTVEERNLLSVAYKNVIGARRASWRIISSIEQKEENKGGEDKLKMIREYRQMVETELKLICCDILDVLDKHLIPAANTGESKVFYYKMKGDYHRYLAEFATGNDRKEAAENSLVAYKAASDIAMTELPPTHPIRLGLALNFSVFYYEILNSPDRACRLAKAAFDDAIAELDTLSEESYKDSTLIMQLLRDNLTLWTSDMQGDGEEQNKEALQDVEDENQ

The target in assay [1] is T1, HA-tagged iRhom2 wild type, in iRhom1/2 DKO HEK293T cells (UniProt Q6PJF5).
T1 sequence: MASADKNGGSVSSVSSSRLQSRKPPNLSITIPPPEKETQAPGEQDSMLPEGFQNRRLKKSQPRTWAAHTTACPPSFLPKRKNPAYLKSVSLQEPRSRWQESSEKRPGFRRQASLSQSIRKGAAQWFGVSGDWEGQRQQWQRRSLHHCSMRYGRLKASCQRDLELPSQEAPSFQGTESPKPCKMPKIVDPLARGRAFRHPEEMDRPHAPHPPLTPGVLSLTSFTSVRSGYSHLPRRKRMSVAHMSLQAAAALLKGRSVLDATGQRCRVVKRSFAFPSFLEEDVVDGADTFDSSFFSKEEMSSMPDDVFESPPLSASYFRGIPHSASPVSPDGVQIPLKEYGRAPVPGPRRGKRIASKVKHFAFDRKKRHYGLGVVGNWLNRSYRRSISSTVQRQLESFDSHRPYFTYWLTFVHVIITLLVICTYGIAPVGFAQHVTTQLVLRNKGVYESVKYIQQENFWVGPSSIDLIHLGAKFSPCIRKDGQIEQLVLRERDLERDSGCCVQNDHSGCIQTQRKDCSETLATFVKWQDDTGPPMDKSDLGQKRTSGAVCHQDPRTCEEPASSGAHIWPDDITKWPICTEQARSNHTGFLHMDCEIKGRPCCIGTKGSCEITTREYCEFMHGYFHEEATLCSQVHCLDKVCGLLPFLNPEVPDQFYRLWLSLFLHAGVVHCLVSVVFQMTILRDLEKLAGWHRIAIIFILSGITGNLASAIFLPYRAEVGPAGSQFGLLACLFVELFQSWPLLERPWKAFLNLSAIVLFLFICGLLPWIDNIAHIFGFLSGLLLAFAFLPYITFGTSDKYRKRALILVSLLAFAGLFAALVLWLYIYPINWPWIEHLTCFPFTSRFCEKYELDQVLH
Put plainly: co-IP.

Assay [2] has as its target T2, HA-tagged iRhom2 wild type, in iRhom1/2 DKO A549 cells (UniProt Q6PJF5).
T2 sequence: T1 sequence
Nature of the assay: co-IP.

With “14-3-3 epsilon, endogenous in HEK293T cells (from UniProt P62258 1-255)”, the binding result in assay [1] is reported as “binds”.

Regarding “14-3-3 epsilon, endogenous in A549 cells (from UniProt P62258 1-255)”, in assay [2], the binding entry was “binds”.
